Experimental data taken from PMC11286125.
These are yes or no findings as the source states them, for the method shown. In cells and extracts the contact can be indirect. These calls come from enrichment with a bait or labelling near it, and not all partners need be listed.

Protein sequences, listed by entry. Tags and fused reporters are not part of them. Lines headed by an entry give the natural chain unless they say otherwise; changes in a name come on top.
UniProt Q9VUB8: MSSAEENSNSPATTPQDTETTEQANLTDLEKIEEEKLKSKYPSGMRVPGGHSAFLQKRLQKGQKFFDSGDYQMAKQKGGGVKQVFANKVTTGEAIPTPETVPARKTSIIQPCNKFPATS
UniProt Q9VN21: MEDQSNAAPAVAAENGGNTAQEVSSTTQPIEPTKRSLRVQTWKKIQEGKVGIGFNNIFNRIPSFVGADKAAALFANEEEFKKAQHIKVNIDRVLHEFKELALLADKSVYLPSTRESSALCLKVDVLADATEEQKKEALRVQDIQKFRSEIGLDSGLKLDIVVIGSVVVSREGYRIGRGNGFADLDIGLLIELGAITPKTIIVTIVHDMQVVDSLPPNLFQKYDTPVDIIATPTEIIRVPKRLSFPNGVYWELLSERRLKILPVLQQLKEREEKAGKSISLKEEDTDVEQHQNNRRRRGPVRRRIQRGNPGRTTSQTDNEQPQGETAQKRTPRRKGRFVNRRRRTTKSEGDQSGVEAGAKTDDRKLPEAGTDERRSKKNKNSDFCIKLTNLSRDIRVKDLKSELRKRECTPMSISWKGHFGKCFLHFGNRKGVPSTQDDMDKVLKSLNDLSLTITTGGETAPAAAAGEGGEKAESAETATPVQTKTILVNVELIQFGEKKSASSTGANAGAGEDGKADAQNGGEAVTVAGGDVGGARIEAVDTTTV
UniProt P21187: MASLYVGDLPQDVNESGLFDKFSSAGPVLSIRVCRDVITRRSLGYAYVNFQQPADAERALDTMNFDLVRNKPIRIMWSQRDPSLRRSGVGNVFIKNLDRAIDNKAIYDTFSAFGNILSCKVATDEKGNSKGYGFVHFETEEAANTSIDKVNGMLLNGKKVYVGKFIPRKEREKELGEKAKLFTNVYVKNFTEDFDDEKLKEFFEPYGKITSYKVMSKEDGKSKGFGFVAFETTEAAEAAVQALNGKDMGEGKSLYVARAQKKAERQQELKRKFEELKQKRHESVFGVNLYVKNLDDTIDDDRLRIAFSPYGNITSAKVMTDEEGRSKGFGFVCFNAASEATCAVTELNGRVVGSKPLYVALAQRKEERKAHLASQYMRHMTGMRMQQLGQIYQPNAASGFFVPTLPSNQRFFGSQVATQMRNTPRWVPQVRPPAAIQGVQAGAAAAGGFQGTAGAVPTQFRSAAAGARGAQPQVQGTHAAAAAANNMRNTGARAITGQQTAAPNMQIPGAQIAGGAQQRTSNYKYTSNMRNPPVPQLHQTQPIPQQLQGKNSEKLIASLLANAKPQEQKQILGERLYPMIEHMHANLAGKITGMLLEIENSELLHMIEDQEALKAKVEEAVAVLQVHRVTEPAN

B1: eIF4E1 (CG4035) (protein, UniProt P48598 1-259)
chain: MQSDFHRMKNFANPKSMFKTSAPSTEQGRPEPPTSAAAPAEAKDVKPKEDPQETGEPAGNTATTTAPAGDDAVRTEHLYKHPLMNVWTLWYLENDRSKSWEDMQNEITSFDTVEDFWSLYNHIKPPSEIKLGSDYSLFKKNIRPMWEDAANKQGGRWVITLNKSSKTDLDNLWLDVLLCLIGEAFDHSDQICGAVINIRGKSNKISIWTADGNNEEAALEIGHKLRDALRLGRNNSLQYQLHKDTMVKQGSNVKSIYTL

Biological target: Endosulfine (CG6513) (Drosophila melanogaster (endogenous in OrR embryos)) (UniProt Q9VUB8)
Assay: affinity purification with mass spectrometry; Endos immunoprecipitated with purified anti-Endos antibody and Dynabeads-Protein A from 10 mg clarified 0-2 h OrR embryo extract, overnight at 4°C; 50 mM HEPES pH 7.6, 150 mM KCl, 2 mM MgCl2, 5 mM DTT, 0.1% NP40 (1% in 'Buf'), 5% glycerol; with or without phosphatase inhibitors; anti-GFP antibody as control; eight pulldowns; LC-MS-MS/MS, Mascot

Row | Molecule | binding
1 | Lost (CG14648) (from UniProt Q9VN21) | binds
2 | PolyA-binding protein (CG5119) (from UniProt P21187 1-634) | binds
3 | B1 | binds
